Here are results for 1 molecule from patent publication US20180057601A1 (PIERRE FABRE MEDICAMENT, published 2018).

Results are given in words; binding and its absence hold for the method and conditions named. Some entries that bind do so weakly or less than the wild type.

This experiment addresses T1, Peptide_013.
T1 sequence (peptide): CKVCCRDLSGRCVPY
The experiment is described as follows: peptide microarray: immobilized 15-mer peptides, antibody at 100 µg/ml, Cy5 anti-human IgG; signal as ratio to control antibody ch9G4.

B1: hz1022C3 (antibody, V domains shown)
VH: QVQLQESGPGLVKPSETLSLTCTVSGFSLDTSGMGVSWIRQPAGKGLEWIGHIYWDDDKRYNPSLKSRVTMSKDTSSNQVSLKLSSVTAADTAVYYCARRSHFGNYYYAMDYWGQGTTVTVSS
VL: DIQMTQSPSSLSASVGDRVTITCRASQDISSYLNWYQQKPGKAPKLLIFYTSRLQSGVPSRFSGSGSGTDFTLTISSLQPEDFATYYCQQGKTLPLTFGGGTKVEIK
notes: also called mAb hz1022C3; anti-ADAM17 mAb (hz1022C3)
Turning to B1, the binding entry is “binds”.
